Assay results from PubChem BioAssay AID2685 (National Center for Advancing Translational Sciences (NCATS), 2010).
The whole screen tested about 320,000 compounds, of which about 2,100 (0.66%) were called active. The shares of active, inactive and inconclusive entries below differ from those in the screen. Calls come from the whole dose curve; as a rule, active = well fitted inhibition curve with a large enough effect in the signal ratio, with a control signal flat (not every such curve was filed as active); inconclusive = small, poorly fitted or top-dose-only effect, or effect the other way, or a change in a side signal; inactive = flat fitted curve, though single readings scatter; the % refers to the signal ratio. A potency beside an inconclusive call is a rough fit, not a confirmed value.

test: qHTS Assay for Lipid Storage Modulators in Drosophila S3 Cells; conditions: BODIPY lipid droplet fluorescence, 18-24 h, cells fed with added oleic acid; lipid storage change, negative = inhibition: at 46.1 µM (top of the series) unless noted
How it was run: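 Drosophila S3 cells loaded with oleic acid (400 uM, as added) and compounds at several concentrations; lipid droplets imaged by 488-nm laser-scanning cytometry, 500–530 nm intensity and object ratio to cell channel. Percent activity normalized to 20 uM Triacsin C.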
% is set by controls: 0 for no effect and ±100 for the full control effect; potency is the fitted concentration of half-maximal effect.

Lipid storage change, negative = inhibition, inconclusive:
Cc1ccc(C(=O)C(C)OC(=O)Cc2n[nH]c(=O)c3ccccc23)cc1 (stereo not given) 9.83%
CCc1ccc(Nc2n[n+](C)c(-c3ccc(C(=O)O)cc3)s2)cc1 25.3%
CCOC(=O)CNC(=O)Cn1cnc2ccc(S(=O)(=O)N3CCC(C)CC3)cc2c1=O 12.2%
N#Cc1nc(COc2ccc(Cl)cc2)oc1N1CCN(Cc2ccccc2)CC1 39%
CCCOC(=O)c1cc(NC(=O)/C=C/c2ccccc2)ccc1O -40.2%
COc1cc(NC(=O)c2ccc3c(c2)C(=O)N(CCC(C)C)C3=O)c(C(=O)O)cc1OC -28.5%
Cc1ccc(O)c(CNc2cnc3ccccc3c2)c1 36.2%
CCCn1c(=O)c(C(=O)Nc2cccc(C)c2)c(O)c2ccccc21 -53.3%
Cc1cccc2[nH]c(-c3ccc(NC(=O)c4ccco4)cc3)nc12 8.09%
Cc1cc(C)c(NC(=O)c2cc(=O)c3ccccc3o2)c(C)c1 21.8%
COc1cc(NC(=S)N2CCN(C)CC2)c(OC)cc1Cl -12%
CCOc1ccccc1N(CC(=O)N1CCCC1)S(C)(=O)=O 41%
COc1ccc(NC(=O)NNC(=O)c2ccc(-c3ccccc3)cc2)cc1 13.2%
O=C(O)COc1ccc(Br)cc1/C=N/O 59.7%
O=C1C2CC=CCC2C(=O)N1c1ccc(NCCc2ccc(O)cc2)c([N+](=O)[O-])c1 (stereo not given) -3.27%
CCN(CC)C(=O)C(=O)N/N=C/c1ccc(F)cc1 9.56%
COc1ccc(OC)c(C(c2nnnn2CCC(C)C)N2CCN(C(=O)c3ccco3)CC2)c1 (stereo not given) 23.3%
COc1ccc(C(=O)C(Cc2cc(C(C)=O)ccc2OC)N2CCCC2)cc1 (stereo not given) 22.7%
O=C(COC(=O)c1sc2ccccc2c1Cl)Nc1ncc(Cl)cc1Cl 110%
CCOc1ccc(NC(=O)CN(C)C(=O)Cc2n[nH]c(=O)c3ccccc23)cc1OCC 77.6%
O=C(c1cccc(OC2CCN(Cc3cccc(OCCO)c3)CC2)c1)N1CCCC1 16.3%
COc1cc(NC(=O)CCN2CCN(C/C=C/c3ccccc3)CC2)cc(OC)c1 -38.2%
Cc1cc(-c2n[nH]c(=S)n2-c2ccccc2C)cs1 0.938%
O=C(CSc1nc2ccccc2o1)N1CCN(S(=O)(=O)c2ccc3ccccc3c2)CC1 30.5%

Arranged by formula weight (largest number first): 12 of the compounds above
Lipid storage change, negative = inhibition, inconclusive:
CCOc1ccc(NC(=O)CN(C)C(=O)Cc2n[nH]c(=O)c3ccccc23)cc1OCC 77.6%
O=C(COC(=O)c1sc2ccccc2c1Cl)Nc1ncc(Cl)cc1Cl 110%
N#Cc1nc(COc2ccc(Cl)cc2)oc1N1CCN(Cc2ccccc2)CC1 39%
O=C1C2CC=CCC2C(=O)N1c1ccc(NCCc2ccc(O)cc2)c([N+](=O)[O-])c1 (stereo not given) -3.27%
COc1ccc(NC(=O)NNC(=O)c2ccc(-c3ccccc3)cc2)cc1 13.2%
CCc1ccc(Nc2n[n+](C)c(-c3ccc(C(=O)O)cc3)s2)cc1 25.3%
CCCn1c(=O)c(C(=O)Nc2cccc(C)c2)c(O)c2ccccc21 -53.3%
COc1cc(NC(=S)N2CCN(C)CC2)c(OC)cc1Cl -12%
Cc1cccc2[nH]c(-c3ccc(NC(=O)c4ccco4)cc3)nc12 8.09%
Cc1cc(C)c(NC(=O)c2cc(=O)c3ccccc3o2)c(C)c1 21.8%
O=C(O)COc1ccc(Br)cc1/C=N/O 59.7%
CCN(CC)C(=O)C(=O)N/N=C/c1ccc(F)cc1 9.56%

Pulled by structure from the list above:
Lipid storage change, negative = inhibition, inconclusive:
COc1cc(NC(=S)N2CCN(C)CC2)c(OC)cc1Cl -12%
Cc1cccc2[nH]c(-c3ccc(NC(=O)c4ccco4)cc3)nc12 8.09%

Following part.

Potency, inconclusive:
Cn1c(N)c(Sc2ccc(F)cc2)c(=O)n(C)c1=O 6.51 µM [falling, single point]
CSC1=NCCN1C(=O)c1ccc(S(=O)(=O)N(C)C)cc1 1.46 µM [falling, full curve]
CCc1sc(C(=O)Nc2cccnc2)cc1Br 18.4 µM [falling, single point]
COc1ccc(-c2nnc(SCc3ncc(-c4ccccc4)o3)o2)cc1 5.8 µM [activator, single point]
CCCC(c1nnnn1CCc1ccccc1)N1CCN(C(=O)c2ccco2)CC1 (stereo not given) 29.1 µM [activator, single point]
CCOC(=O)c1ccc(N2CCN(c3ccc(F)cc3)CC2)c(NC(=O)Nc2cccc(OC)c2)c1 8.2 µM [activator, partial curve]
CCOc1ccc(S(=O)(=O)NC(C)C(=O)NCc2cccnc2)cc1 (stereo not given) 23.1 µM [activator, single point]
C=CCOc1c(CNc2cccc(C(=O)O)c2)cccc1OC 0.0731 µM [falling, full curve]
COc1cc(OC)cc(C(=O)N2CCC(C(=O)NCCc3ccccc3)CC2)c1 32.6 µM [falling, partial curve, poor fit]
O=C(CN1C(=O)c2ccccc2C1=O)NCCc1c[nH]c2ccc(Cl)cc12 4.11 µM [activator, full curve]
O=C(Nc1ccccc1N1CCCC1)C1CC(=O)N(Cc2ccccc2)C1 (stereo not given) 0.0651 µM [activator, full curve, poor fit]
CC(C)c1c(O)nc(SCc2ccc(F)cc2)[nH]c1=O 3.26 µM [activator, partial curve]
O=C(Nc1ccc2oc(-c3ccncc3)nc2c1)c1ccc(Br)o1 0.116 µM [activator, partial curve, poor fit]
CC(C)(C)OC(=O)N1Cc2ccccc2C[C@H]1C(=O)NC1CCCC1 16.4 µM [activator, partial curve]
CCc1ccc(NC(=O)C2CCCN(S(=O)(=O)c3ccc4c(c3)CCCN4C(C)=O)C2)cc1 (stereo not given) 1.03 µM [falling, full curve, poor fit]
O=C(COC(=O)/C=C/c1ccc(Cl)cc1)NCCc1ccccc1 29.1 µM [falling, single point]
Cc1ccc(-n2nc3c(=O)n(CCCC(=O)N4CCC(C(N)=O)CC4)nc(C)c3c2C)cc1 9.2 µM [activator, partial curve]
CCOC(=O)c1cccc(NC(=O)CCS(=O)(=O)c2cccc3nsnc23)c1 13 µM [activator, partial curve, poor fit]
COc1ccc(C(C(=O)NCc2ccc(F)cc2)N(Cc2cccnc2)C(=O)c2snc(C(N)=O)c2N)cc1 (stereo not given) 0.146 µM [activator, full curve]
CCN(CC(=O)Nc1ccc(OC)cc1)C(=O)Cc1coc2cc(C)c(C)cc12 29.1 µM [falling, partial curve, poor fit]
COc1cccc([C@@H]2CC=C(C(=O)O)[C@H](c3ccc(Cl)cc3)N2S(=O)(=O)c2ccc(C)cc2)c1 0.291 µM [activator, full curve, poor fit]
